Assay results from PMC6389893.
Results are given in words; binding and its absence hold for the method and conditions named. Binding seen in cells or lysates may run through a third protein. Binding can be weak; no strength is given.

Target: GST-IN full length (HIV-1)
Assay: pull-down; GST pull-down of wild-type TRIM33 and its RING and PHD point mutants with IN (Supplementary Fig. 6c); how the TRIM33 proteins were made is not told for this panel

B1: TRIM33 PHD(C901A/C902A/C905A) (protein, UniProt Q9UPN9 1-1127)
chain: MAENKGGGEAESGGGGSGSAPVTAGAAGPAAQEAEPPLTAVLVEEEEEEGGRAGAEGGAAGPDDGGVAAASSGSAQAASSPAASVGTGVAGGAVSTPAPAPASAPAPGPSAGPPPGPPASLLDTCAVCQQSLQSRREAEPKLLPCLHSFCLRCLPEPERQLSVPIPGGSNGDIQQVGVIRCPVCRQECRQIDLVDNYFVKDTSEAPSSSDEKSEQVCTSCEDNASAVGFCVECGEWLCKTCIEAHQRVKFTKDHLIRKKEDVSESVGASGQRPVFCPVHKQEQLKLFCETCDRLTCRDCQLLEHKEHRYQFLEEAFQNQKGAIENLLAKLLEKKNYVHFAATQVQNRIKEVNETNKRVEQEIKVAIFTLINEINKKGKSLLQQLENVTKERQMKLLQQQNDITGLSRQVKHVMNFTNWAIASGSSTALLYSKRLITFQLRHILKARCDPVPAANGAIRFHCDPTFWAKNVVNLGNLVIESKPAPGYTPNVVVGQVPPGTNHISKTPGQINLAQLRLQHMQQQVYAQKHQQLQQMRMQQPPAPVPTTTTTTQQHPRQAAPQMLQQQPPRLISVQTMQRGNMNCGAFQAHQMRLAQNAARIPGIPRHSGPQYSMMQPHLQRQHSNPGHAGPFPVVSVHNTTINPTSPTTATMANANRGPTSPSVTAIELIPSVTNPENLPSLPDIPPIQLEDAGSSSLDNLLSRYISGSHLPPQPTSTMNPSPGPSALSPGSSGLSNSHTPVRPPSTSSTGSRGSCGSSGRTAEKTSLSFKSDQVKVKQEPGTEDEICSFSGGVKQEKTEDGRRSACMLSSPESSLTPPLSTNLHLESELDALASLENHVKIEPADMNESCKQSGLSSLVNGKSPIRSLMHRSARIGGDGNNKDDDPNEDWCAVCQNGGDLLAAEKAPKVFHLTCHVPTLLSFPSGDWICTFCRDIGKPEVEYDCDNLQHSKKGKTAQGLSPVDQRKCERLLLYLYCHELSIEFQEPVPASIPNYYKIIKKPMDLSTVKKKLQKKHSQHYQIPDDFVADVRLIFKNCERFNEMMKVVQVYADTQEINLKADSEVAQAGKAVALYFEDKLTEIYSDRTFAPLPEFEQEEDDGEVTEDSDEDFIQPRRKRLKSDERPVHIK
Q: For B1, which binding is on record?
A: binds
